Reference: US11766470B2 (VectivBio AG, priority 2020, dated 2023)

Test: general procedure: Fmoc solid-phase peptide synthesis; Fmoc-Rink-amide-MBHA resin; DIC/oxyma
Settings: whole synthesis, sodium salt

In the case of “HGDGSFSDE[Nle][dF]TILDLLAARDFINWLIQTKITD-NH2”, the “final purity (method not given)” value (RP-HPLC) is reported as “no less than 97%”, the “final HPLC purity” value (RP-HPLC, run 1) is reported as at least 97% and the “final HPLC purity” value (RP-HPLC, run 2) is reported as “no less than 95%”. For the same substance, the difficulty met was “variability in levels of D-His impurity between 0.3%-1.2%, sometimes with incomplete coupling”, the isolated yield (run 1) was 15% to 22% and the isolated yield (run 2) was “about 20%”. For the same substance, the isolated yield (run 3) was “about 22%”.

Square brackets hold non-standard residues; d marks the D form. Ends that are not written are not given here. Nle = CCCC[C@H](N)C(=O)O
